Measurements published in the supplement of paper PMC7666118.
The other results are listed elsewhere or left out.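 How the source made its calls: active = dose-dependent thermal stabilisation significant by F-test of dose-response against flat model at 10% FDR; inactive = not significant.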

Chains of the proteins cited; added tags and fusions are not shown. Lines headed by an entry give the natural chain unless they say otherwise; changes in a name come on top.
UniProt Q15233: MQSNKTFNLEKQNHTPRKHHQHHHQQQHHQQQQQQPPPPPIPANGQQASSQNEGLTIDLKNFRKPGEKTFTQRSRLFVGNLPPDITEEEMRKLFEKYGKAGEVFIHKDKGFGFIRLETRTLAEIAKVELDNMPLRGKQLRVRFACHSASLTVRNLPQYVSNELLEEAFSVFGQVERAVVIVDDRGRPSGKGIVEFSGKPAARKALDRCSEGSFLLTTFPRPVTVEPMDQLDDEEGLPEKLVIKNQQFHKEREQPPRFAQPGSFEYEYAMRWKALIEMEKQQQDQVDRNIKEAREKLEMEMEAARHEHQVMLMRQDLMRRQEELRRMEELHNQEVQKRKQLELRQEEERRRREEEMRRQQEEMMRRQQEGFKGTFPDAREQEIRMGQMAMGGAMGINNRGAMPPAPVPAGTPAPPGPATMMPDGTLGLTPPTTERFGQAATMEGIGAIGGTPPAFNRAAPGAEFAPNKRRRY
UniProt P35658: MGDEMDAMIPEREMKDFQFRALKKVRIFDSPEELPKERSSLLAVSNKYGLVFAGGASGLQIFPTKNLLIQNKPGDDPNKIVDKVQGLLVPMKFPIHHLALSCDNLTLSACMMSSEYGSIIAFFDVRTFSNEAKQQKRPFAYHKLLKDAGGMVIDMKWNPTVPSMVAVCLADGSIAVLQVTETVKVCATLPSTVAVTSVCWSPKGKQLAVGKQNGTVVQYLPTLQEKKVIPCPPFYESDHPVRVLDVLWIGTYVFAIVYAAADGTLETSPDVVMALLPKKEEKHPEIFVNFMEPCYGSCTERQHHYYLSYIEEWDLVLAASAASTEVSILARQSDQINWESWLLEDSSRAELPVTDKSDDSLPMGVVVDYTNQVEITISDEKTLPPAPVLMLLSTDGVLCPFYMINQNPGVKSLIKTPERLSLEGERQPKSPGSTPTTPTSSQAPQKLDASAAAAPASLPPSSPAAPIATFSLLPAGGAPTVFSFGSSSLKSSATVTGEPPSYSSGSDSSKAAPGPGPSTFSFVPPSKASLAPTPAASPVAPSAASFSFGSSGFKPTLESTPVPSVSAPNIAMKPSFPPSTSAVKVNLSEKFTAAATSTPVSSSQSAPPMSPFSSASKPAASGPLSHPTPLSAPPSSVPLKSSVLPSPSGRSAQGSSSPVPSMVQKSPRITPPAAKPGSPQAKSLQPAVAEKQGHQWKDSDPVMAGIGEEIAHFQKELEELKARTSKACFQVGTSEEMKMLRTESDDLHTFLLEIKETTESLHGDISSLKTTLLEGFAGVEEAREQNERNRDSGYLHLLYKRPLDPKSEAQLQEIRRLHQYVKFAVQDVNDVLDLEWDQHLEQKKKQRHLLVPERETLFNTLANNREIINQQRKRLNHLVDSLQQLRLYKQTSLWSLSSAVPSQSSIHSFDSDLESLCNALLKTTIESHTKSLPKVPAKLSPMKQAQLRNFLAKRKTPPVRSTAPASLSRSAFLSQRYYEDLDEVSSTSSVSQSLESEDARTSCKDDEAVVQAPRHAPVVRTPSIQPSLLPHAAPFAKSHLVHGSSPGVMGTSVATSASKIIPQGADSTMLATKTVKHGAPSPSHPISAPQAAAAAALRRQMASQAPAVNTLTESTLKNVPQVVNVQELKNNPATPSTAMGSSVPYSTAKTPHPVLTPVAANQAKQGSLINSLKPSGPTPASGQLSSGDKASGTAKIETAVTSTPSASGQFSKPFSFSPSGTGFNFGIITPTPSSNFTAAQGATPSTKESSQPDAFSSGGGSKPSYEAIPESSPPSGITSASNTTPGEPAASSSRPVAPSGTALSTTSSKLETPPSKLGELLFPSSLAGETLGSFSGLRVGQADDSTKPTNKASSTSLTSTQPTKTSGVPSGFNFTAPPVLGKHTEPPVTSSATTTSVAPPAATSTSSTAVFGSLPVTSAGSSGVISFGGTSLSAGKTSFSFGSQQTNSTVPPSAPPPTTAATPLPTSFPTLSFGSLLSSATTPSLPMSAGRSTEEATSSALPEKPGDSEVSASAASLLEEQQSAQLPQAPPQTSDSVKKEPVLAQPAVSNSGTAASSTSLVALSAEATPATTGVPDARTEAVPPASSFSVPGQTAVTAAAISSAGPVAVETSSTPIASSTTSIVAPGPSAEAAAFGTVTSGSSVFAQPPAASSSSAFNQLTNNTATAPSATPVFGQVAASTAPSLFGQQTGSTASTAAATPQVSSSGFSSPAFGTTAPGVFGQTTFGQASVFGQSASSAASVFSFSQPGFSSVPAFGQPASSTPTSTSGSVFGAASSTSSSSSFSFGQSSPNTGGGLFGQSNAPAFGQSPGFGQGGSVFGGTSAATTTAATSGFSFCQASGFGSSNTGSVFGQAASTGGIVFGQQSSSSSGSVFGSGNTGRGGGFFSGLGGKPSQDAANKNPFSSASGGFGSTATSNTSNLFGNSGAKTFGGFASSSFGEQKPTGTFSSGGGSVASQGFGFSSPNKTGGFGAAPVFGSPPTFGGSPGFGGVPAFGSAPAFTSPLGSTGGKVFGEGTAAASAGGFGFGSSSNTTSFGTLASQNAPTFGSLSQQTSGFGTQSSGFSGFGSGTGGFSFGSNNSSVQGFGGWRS
UniProt Q9BRP4: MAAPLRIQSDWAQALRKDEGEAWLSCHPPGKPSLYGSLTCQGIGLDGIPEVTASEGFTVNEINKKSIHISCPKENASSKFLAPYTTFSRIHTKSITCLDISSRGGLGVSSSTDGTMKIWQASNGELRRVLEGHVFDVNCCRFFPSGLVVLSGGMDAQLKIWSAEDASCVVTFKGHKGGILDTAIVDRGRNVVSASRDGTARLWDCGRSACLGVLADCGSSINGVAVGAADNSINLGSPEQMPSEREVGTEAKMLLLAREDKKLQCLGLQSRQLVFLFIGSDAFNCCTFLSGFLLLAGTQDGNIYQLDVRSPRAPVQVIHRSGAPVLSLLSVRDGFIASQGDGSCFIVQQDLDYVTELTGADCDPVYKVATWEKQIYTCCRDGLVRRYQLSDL
UniProt Q9Y5A7: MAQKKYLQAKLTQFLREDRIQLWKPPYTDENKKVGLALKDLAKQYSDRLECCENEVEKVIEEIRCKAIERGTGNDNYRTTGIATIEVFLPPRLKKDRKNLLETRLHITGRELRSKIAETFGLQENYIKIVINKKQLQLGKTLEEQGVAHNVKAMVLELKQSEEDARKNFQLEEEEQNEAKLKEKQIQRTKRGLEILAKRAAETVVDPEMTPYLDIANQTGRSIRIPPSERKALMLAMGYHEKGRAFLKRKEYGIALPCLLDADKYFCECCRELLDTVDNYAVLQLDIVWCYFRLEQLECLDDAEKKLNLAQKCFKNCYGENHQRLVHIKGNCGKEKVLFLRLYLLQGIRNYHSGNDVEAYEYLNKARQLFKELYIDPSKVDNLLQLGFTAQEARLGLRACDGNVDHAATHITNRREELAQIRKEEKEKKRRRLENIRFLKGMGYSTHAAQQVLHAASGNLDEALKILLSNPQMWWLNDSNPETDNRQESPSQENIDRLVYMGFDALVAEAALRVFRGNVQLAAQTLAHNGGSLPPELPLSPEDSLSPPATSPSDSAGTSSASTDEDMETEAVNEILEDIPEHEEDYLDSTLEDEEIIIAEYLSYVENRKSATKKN
UniProt Q9UMS0: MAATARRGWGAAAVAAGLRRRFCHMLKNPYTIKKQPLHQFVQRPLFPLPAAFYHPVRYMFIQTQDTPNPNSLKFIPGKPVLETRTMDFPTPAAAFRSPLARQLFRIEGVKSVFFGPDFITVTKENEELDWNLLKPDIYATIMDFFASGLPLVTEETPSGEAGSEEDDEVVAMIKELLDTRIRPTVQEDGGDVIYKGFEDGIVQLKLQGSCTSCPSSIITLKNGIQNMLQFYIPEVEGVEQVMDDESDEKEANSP
UniProt Q9BW27: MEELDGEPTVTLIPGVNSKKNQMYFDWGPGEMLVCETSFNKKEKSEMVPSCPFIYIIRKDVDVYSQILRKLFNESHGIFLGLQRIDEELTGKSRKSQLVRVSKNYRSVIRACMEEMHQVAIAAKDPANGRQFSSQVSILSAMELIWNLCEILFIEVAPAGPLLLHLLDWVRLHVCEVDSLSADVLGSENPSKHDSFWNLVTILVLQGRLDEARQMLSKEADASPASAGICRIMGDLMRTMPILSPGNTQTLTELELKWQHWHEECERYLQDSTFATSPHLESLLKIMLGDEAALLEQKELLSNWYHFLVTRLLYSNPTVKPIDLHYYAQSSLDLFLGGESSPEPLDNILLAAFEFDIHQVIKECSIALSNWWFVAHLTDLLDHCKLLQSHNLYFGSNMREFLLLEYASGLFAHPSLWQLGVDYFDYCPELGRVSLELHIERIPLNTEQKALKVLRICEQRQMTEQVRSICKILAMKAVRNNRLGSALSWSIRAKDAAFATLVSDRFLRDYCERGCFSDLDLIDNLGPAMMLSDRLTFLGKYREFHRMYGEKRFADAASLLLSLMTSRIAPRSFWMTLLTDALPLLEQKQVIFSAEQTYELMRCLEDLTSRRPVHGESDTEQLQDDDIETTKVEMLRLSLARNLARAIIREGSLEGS
UniProt Q86U42: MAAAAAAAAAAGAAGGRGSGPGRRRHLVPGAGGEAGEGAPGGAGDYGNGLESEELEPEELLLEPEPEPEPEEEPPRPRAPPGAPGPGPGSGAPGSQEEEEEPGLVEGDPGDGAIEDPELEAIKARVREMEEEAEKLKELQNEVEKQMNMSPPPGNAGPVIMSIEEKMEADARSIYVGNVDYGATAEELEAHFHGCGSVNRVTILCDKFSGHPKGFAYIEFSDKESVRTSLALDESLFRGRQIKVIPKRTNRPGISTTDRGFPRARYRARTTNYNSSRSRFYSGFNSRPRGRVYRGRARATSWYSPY
UniProt Q5VZE5: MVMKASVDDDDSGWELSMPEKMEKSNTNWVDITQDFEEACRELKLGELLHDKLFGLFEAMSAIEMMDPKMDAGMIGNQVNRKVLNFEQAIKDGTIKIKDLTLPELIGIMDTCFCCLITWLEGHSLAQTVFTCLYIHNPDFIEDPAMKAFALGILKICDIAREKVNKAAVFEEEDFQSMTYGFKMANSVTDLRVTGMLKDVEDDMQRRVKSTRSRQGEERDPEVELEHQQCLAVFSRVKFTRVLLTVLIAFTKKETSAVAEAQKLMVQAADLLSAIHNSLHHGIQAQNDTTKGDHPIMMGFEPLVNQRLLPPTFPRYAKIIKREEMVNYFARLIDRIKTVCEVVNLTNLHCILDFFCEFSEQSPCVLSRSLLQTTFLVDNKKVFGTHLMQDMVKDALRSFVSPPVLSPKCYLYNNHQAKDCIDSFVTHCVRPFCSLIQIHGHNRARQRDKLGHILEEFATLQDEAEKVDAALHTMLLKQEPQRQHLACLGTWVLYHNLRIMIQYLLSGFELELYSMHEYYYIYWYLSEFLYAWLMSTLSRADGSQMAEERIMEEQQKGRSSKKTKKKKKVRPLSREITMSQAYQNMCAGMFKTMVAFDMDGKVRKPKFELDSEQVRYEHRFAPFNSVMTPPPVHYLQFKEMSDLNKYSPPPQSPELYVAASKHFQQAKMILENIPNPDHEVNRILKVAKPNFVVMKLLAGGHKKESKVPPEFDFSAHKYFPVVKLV
UniProt Q9H3P2, whole entry: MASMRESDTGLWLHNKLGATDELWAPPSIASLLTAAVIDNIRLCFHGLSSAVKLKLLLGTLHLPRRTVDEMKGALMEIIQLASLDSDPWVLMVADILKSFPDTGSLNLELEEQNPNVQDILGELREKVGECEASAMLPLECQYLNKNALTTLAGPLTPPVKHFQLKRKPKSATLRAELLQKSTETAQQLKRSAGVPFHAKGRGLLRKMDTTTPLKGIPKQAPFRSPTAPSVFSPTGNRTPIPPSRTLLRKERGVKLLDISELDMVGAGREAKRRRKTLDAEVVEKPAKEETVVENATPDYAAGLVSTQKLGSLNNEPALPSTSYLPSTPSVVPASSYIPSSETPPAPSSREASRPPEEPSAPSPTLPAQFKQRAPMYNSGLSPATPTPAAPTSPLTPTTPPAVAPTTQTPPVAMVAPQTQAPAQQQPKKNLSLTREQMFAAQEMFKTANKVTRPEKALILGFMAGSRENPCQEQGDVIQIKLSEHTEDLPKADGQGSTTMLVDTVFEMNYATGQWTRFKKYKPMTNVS
UniProt O43776: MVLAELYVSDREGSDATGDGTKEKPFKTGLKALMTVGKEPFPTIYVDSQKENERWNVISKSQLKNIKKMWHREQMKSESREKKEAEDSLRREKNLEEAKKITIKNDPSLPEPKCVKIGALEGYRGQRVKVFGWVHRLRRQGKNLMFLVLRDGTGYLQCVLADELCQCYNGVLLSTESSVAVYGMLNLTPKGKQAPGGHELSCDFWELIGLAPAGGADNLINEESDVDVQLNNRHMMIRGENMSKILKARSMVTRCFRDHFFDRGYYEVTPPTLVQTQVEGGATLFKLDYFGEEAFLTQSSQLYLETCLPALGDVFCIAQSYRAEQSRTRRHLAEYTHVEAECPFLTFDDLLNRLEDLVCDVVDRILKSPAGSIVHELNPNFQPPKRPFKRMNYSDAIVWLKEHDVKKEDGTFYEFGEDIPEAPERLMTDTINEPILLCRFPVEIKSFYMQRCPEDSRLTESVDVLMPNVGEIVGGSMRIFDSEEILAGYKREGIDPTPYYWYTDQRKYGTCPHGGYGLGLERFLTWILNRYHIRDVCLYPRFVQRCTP

These targets were tested with Nc1nc2c(ncn2[C@@H]2O[C@H](COP(=O)(O)OP(=O)(O)OP(=O)(O)O)[C@@H](O)[C@H]2O)c(=O)[nH]1 (assay: dose-dependent thermal stabilisation call (2D-TPP, DLPTP, 10% FDR) (binary (1 = stabilised)); higher = stabilised by the compound). Conditions: system: Jurkat gel-filtered lysate; concentration range 1-500 µM.
Method: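 2D thermal proteome profiling in gel-filtered Jurkat E6.1 lysate (2 mg/ml) treated with NaGTP (0, 1, 10, 100, 500 uM) for 10 min at room temperature, then heated 3 min at one of 12 temperatures (42-63.9 C). Soluble protein was quantified by TMT10 MS. The value is the DLPTP call of the paper: dose-dependent thermal stabilisation over all temperatures at 10% FDR (F-test of a dose-response against a flat model); one experiment, one call per tested protein.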

Target	dose-dependent thermal stabilisation call
NONO (UniProt Q15233)	inactive: 0
NUP214 (UniProt P35658)	inactive: 0
NDRG3 (UniProt Q9UGV2)	inactive: 0
NECAP2 (UniProt Q9NVZ3)	inactive: 0
PAG1 (UniProt Q9NWQ8)	inactive: 0
PAAF1 (UniProt Q9BRP4)	inactive: 0
NEMF (UniProt O60524)	active: 1
OARD1 (UniProt Q9Y530)	inactive: 0
NUB1 (UniProt Q9Y5A7)	inactive: 0
NSFL1C (UniProt Q9UNZ2)	inactive: 0
NUSAP1 (UniProt Q9BXS6)	inactive: 0
NFU1 (UniProt Q9UMS0)	inactive: 0
NFRKB (UniProt Q6P4R8)	inactive: 0
NFAT5 (UniProt O94916)	inactive: 0
NCAPD2 (UniProt Q15021)	inactive: 0
NUP85 (UniProt Q9BW27)	inactive: 0
NSUN2 (UniProt Q08J23)	active: 1
NPAT (UniProt Q14207)	inactive: 0
NASP (UniProt P49321)	inactive: 0
NOTCH3 (UniProt Q9UM47)	inactive: 0

Target	dose-dependent thermal stabilisation call
NKIRAS2 (UniProt Q9NYR9)	active: 1
NUP37 (UniProt Q8NFH4)	inactive: 0
PABPN1 (UniProt Q86U42)	inactive: 0
NIPSNAP1 (UniProt Q9BPW8)	active: 1
NCKAP1 (UniProt Q9Y2A7)	inactive: 0
OGT (UniProt O15294)	inactive: 0
NARF (UniProt Q9UHQ1)	active: 1
NFATC2IP (UniProt Q8NCF5)	inactive: 0
NFATC3 (UniProt Q12968)	inactive: 0
NR2C2AP (UniProt Q86WQ0)	inactive: 0
NAA35 (UniProt Q5VZE5)	active: 1
NELFA (UniProt Q9H3P2)	inactive: 0
NARS (UniProt O43776)	active: 1
NIT2 (UniProt Q9NQR4)	active: 1
PAFAH1B3 (UniProt Q15102)	inactive: 0
NCOR1 (UniProt O75376)	inactive: 0
NDOR1 (UniProt Q9UHB4)	active: 1
NDUFA2 (UniProt O43678)	inactive: 0
NEK4 (UniProt P51957)	inactive: 0
NFX1 (UniProt Q12986)	inactive: 0

Nothing new here: entries from further up.
Target	dose-dependent thermal stabilisation call
NARS (UniProt O43776)	active: 1
NIT2 (UniProt Q9NQR4)	active: 1
PAFAH1B3 (UniProt Q15102)	inactive: 0
